The values below come from US9458100B2, “Synthesis and growth regulatory activity of a prototype member of a new family of aminothiol radioprotectors” (Wisconsin Alumni Research Foundation, priority 2012, dated 2016).

“And” between values parts separate entries of the source, which are not always exact repeats. Identical values can stand only once.

This data set is described as follows: Smell score comparison with a 2-mercaptoethanol dilution series. The following applies: solution at approximate single maximum human dose; one score per subject.

For `CNCC(CS)CNC` [PrC-210, 3-(methyl-amino)-2-((methylamino)methyl)propane-1-thiol], the “smell score (matching 2-ME dilution)” value was 8 and 7.
